Taken from: PubChem BioAssay AID652243 (Drosophila RNAi Screening Center, 2013)
The deposit covers about 24,000 reagents; shown is an unselected part of those that have a named target and a result. Of all reagents, 246 (1%) got an active call. 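Plates not normalised; calls are printed but the firefly/Renilla ratio behind them is not deposited; fold cut for lowering reported inconsistently.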 Raw values are not corrected between plates. A plus sign joins genes that one reagent is predicted to hit. Reagent sequences are not shown. The record does not give: the amount of reagent.

Screen: 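Knock-downs that decrease or increase androgen receptor reporter signal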 (primary screen)
Cell system: Drosophila S2R+ cells
Reagent: long dsRNA against Drosophila genes
Timing: 72 h (48 h, then 24 h hormone)
Challenge: synthetic androgen R1881 at 10 nM for 24 h
Read-out: 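Firefly light from an androgen-responsive reporter and Renilla control light per well, raw and unnormalised, for each of two replicates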
Direction: firefly reporter light: higher = more light from androgen-responsive reporter; Renilla control light: higher = more constitutive control signal (cell number, transfection)
Hit rule: 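Across duplicate plates, a knock-down whose log firefly/Renilla ratio shifted a set fold down or up from the GFP/LacZ control mean was a hit; the downward cut appears as both 1.5 and 3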
Meaning of the calls: active = hit: reporter lowered or raised; inactive = no hit

predicted target,dsRNA,"firefly reporter light, replicate 1","firefly reporter light, replicate 2","Renilla control light, replicate 1","Renilla control light, replicate 2",call
DZIP1,DRSC14620,1.95e5,2.56e5,2.74e6,2.65e6,inactive
Dnali1,DRSC16158,77249,94615,5.30e5,6.18e5,inactive
Obp56b,DRSC06551,87719,98678,1.06e6,9.81e5,inactive
Sting,DRSC06615,3.21e5,1.89e5,2.15e6,1.29e6,inactive
Sting,DRSC29477,3.15e5,5.14e5,6.78e5,6.78e5,inactive
Rap2l,DRSC04646,3.26e5,4.74e5,1.99e6,2.36e6,inactive
CG14069,DRSC02372,2.49e5,2.66e5,2.25e6,2.78e6,inactive
wupA,DRSC20385,5.18e5,6.41e5,2.89e6,3.78e6,inactive
wupA,DRSC22547,5.80e5,7.58e5,9.14e5,1.42e6,inactive
wupA,DRSC29330,4.72e5,5.72e5,1.78e6,1.78e6,inactive
Unc-115a,DRSC12749,1.20e5,1.22e5,3.08e5,2.24e5,inactive
Unc-115a,DRSC24907,7.14e5,1.32e6,8.18e5,9.40e5,inactive
CG6294 + CG6299 + CG15642,DRSC19981,5.66e5,8.14e5,4.69e6,4.31e6,inactive
Npc2a,DRSC00698,58478,52923,3.93e5,3.74e5,inactive
PGRP-LB,DRSC14926,49346,83212,4.91e5,3.78e5,inactive
Rcd7,DRSC10100,2.75e5,2.29e5,2.62e6,2.75e6,inactive
EndoB,DRSC07345,50228,1.11e5,1.03e6,1.31e6,inactive
Ide,DRSC11867,32059,27483,4.64e5,4.46e5,inactive
Est-6,DRSC11162,1.69e5,1.52e5,1.83e6,1.52e6,inactive
Est-6,DRSC39111,9.43e5,6.81e5,1.81e6,1.92e6,inactive
Pdp,DRSC17825,79733,63487,5.30e5,3.50e5,inactive
Pdp,DRSC26725,3.18e5,3.22e5,5.89e5,5.26e5,inactive
LRP1,DRSC07238,3.30e5,2.71e5,1.96e6,1.33e6,inactive
CG43897,DRSC10173,1.24e5,1.15e5,1.43e6,9.81e5,inactive
CG43897,DRSC10967,2.64e5,3.64e5,3.65e6,3.50e6,inactive
CG43897,DRSC25184,7.35e5,4.41e5,5.95e5,5.51e5,inactive
CG43897,DRSC25785,4.09e5,4.30e5,7.95e5,5.76e5,inactive
GckIII,DRSC15729,1.01e5,1.03e5,1.47e6,1.69e6,inactive
GckIII,DRSC36933,,,,,inactive
COX5BL,DRSC02123,2.37e5,2.27e5,2.40e6,1.98e6,inactive
COX5BL,DRSC27300,3.19e5,2.81e5,6.84e5,5.09e5,inactive
amd,DRSC02608,4.40e5,8.05e5,1.29e6,2.27e6,inactive
amd,DRSC03483,1.08e5,1.30e5,1.33e6,1.73e6,inactive
CG13040,DRSC09921,2.63e5,2.21e5,2.20e6,1.64e6,inactive
CG13040,DRSC28429,2.35e5,5.01e5,6.78e5,1.35e6,inactive
Irk1,DRSC14686,2.47e5,2.20e5,2.25e6,2.26e6,inactive
Irk1,DRSC16106,2.72e5,2.77e5,2.13e6,2.56e6,inactive
Irk1,DRSC28063,4.79e5,4.93e5,1.58e6,1.49e6,inactive
Gr10b,DRSC19477,3.66e5,3.05e5,3.23e6,3.67e6,inactive
Gr10b,DRSC28702,5.90e5,4.96e5,1.12e6,1.03e6,inactive
prd1,DRSC15227,86936,91952,1.74e6,1.97e6,inactive
dpr2,DRSC02370,3.04e5,2.16e5,2.05e6,1.67e6,inactive
dpr2,DRSC02371,2.40e5,2.60e5,1.86e6,2.12e6,inactive
CG6254,DRSC16002,65057,36362,6.01e5,3.25e5,inactive
CG43163,DRSC10748,1.92e5,1.99e5,2.60e6,1.27e6,inactive
CG43163,DRSC23670,5.56e5,8.38e5,8.41e5,9.33e5,inactive
CG4198,DRSC18354,1.21e5,62088,1.02e6,4.77e5,inactive
CG4198,DRSC26635,3.05e5,3.40e5,7.90e5,7.91e5,inactive
Prosalpha7,DRSC07516,1.37e6,1.18e6,2.26e6,1.65e6,inactive
Prosalpha7,DRSC29365,4.53e5,4.25e5,7.23e5,7.23e5,inactive
Tig,DRSC03456,1.38e5,85024,1.21e6,1.10e6,inactive
Tig,DRSC28388,6.20e5,8.29e5,8.45e5,1.12e6,inactive
PIG-H + Kmn2,DRSC12653,3.87e5,93245,14690,2.00e5,inactive
APC7,DRSC17937,1.42e5,59730,8.45e5,5.85e5,inactive
APC7,DRSC27097,4.39e5,3.38e5,6.99e5,4.29e5,inactive
CG11679,DRSC19415,78606,82290,6.24e5,5.82e5,inactive
CG13293,DRSC09967,65718,74222,1.30e6,1.07e6,inactive
LysD + LysC (retired record),DRSC08674,66176,84173,9.35e5,6.73e5,inactive
LysD + LysC (retired record),DRSC22743,4.23e5,5.10e5,1.29e6,1.17e6,inactive

Copied from the list:
LRP1 [DRSC07238], call = inactive
Under “firefly reporter light, replicate 2”, Unc-115a [DRSC24907] is entered as 1.32e6
Under “firefly reporter light, replicate 1”, CG14069 [DRSC02372] reads 2.49e5
Pdp [DRSC26725], call = inactive
Entry of Prosalpha7 [DRSC07516] in “call”: inactive
Value of Sting [DRSC29477] in “firefly reporter light, replicate 1”: 3.15e5
